According to PubChem BioAssay AID2730 (National Center for Advancing Translational Sciences (NCATS), 2010):
Inconclusive results, whose numbers are uncertain, are shown. Potencies of inconclusive entries are doubtful fits and often do not repeat.

Assay: High Content Assay for Compounds that inhibit the Assembly of the Perinucleolar Compartment: Confirmation of PNC Inhibition
Details: PC3M PTB-GFP, PNC prevalence imaging, 16 h; active means well fitted inhibition curve with a large enough effect; inconclusive means small, poorly fitted or top-dose-only effect; inactive means no such curve, though single readings can be large or run the other way
From the text: High Content Assay for Compounds that inhibit the Assembly of the Perinucleolar Compartment NIH Chemical Genomics Center [NCGC] NIH Molecular Libraries Probe Centers Network [MLPCN] MLPCN Grant: MH082371-01A2 Assay Submitter (PI): Sui Huang, Northwestern University, Feinberg School of Medicine, Cell and Molecular Biology, Chicago, Illinois. The perinucleolar compartment (PNC) is a non-membrane-bound nuclear subdomain that is associated with but structurally distinct from the nucleolus. The PNC is a heritable trait, in which the number of PNCs per cell in daughter cells often mimics that of their mother cells. The PNC is heterogeneous in shape, is stable through interphase, disassembles during mitosis, and reassembles in early G1. The PNC is concentrated with newly synthesized RNA polymerase III (pol III) RNAs (MRP RNA, RNAse P H1 RNA, hY RNAs[hY1, 2, 5], Alu RNA, and SRP [7SL] RNA) and RNA binding proteins (nucleolin, PTB, CUG-BP, KSRP, Raver1, Raver2, and Rod). […] Extensive in vitro studies have shown that the PNC is unique to tumor cells and preferentially forms in tumor cells derived from solid tissues. Examination of cancer cell lines from various origins and malignant capacities has shown that PNC prevalence correlates with the malignancy of tumors and has the potential to be developed as a pan-cancer prognostic marker. […]

Compound | Potency
Cc1c2ccncc2c(C)c2c1[nH]c1ccccc12 | inconclusive: 12.6 µM [inhibitor, full curve, poor fit]
CCC(=NCc1cc(OC)cc(OC)c1)c1c(O)n(C)c(=O)n(C)c1=O | inconclusive: 8.91 µM [inhibitor, full curve, poor fit]
